This passage reports binding results from article PMC6499331, “Transcriptional gene silencing requires dedicated interaction between HP1 protein Chp2 and chromatin remodeler Mit1” (Genes & Development, 2019).

Protein sequences, listed by entry. Tags and fused reporters are not part of them. Lines headed by an entry give the natural chain unless they say otherwise; changes in a name come on top.
UniProt Q9P793: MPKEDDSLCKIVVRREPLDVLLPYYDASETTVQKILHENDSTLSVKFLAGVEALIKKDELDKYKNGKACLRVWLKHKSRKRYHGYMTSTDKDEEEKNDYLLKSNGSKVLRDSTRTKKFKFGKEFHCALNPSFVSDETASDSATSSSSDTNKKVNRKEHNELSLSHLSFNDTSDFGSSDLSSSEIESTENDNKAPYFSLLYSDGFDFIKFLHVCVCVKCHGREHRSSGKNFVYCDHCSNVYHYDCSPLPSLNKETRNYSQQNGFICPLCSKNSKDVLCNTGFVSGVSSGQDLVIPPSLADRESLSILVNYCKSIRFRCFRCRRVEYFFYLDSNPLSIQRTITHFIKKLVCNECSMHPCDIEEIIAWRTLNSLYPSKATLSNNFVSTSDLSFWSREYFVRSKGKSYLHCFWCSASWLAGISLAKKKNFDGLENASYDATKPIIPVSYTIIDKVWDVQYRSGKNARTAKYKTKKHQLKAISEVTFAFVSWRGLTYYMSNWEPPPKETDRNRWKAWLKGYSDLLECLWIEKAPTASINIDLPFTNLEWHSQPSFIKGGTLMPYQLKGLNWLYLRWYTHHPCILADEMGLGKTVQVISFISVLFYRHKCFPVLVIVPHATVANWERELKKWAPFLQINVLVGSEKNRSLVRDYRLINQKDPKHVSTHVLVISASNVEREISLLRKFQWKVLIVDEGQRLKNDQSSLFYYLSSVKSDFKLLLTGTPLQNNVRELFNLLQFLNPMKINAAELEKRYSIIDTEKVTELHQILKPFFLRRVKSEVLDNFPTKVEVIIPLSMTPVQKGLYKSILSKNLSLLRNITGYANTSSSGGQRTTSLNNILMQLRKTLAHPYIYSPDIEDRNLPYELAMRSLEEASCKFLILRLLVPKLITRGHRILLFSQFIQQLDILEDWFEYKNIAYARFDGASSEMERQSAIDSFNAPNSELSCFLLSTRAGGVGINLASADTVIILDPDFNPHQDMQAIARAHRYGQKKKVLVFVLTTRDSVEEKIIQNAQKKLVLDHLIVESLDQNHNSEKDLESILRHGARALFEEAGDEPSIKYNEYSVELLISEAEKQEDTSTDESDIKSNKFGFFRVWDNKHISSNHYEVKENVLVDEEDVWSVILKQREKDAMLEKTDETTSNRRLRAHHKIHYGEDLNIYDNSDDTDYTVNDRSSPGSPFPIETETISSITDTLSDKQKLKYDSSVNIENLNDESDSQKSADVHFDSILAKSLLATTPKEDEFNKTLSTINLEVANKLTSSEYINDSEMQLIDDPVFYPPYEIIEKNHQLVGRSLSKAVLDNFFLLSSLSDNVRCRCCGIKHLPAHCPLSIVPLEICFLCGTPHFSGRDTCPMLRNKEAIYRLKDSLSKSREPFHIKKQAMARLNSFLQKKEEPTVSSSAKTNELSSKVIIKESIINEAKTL
UniProt O42934: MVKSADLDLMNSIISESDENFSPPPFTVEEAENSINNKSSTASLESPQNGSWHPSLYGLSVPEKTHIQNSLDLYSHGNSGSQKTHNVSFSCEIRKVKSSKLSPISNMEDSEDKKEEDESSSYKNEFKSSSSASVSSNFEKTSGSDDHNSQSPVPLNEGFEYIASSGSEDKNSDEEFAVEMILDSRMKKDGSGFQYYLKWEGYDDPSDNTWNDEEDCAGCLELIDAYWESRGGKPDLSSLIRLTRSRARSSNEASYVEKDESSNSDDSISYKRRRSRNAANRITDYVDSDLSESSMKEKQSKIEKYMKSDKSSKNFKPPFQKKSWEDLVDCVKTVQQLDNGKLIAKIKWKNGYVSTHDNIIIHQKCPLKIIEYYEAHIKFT

Experiment [1] addresses Mit1 N terminus (OneStrep-tagged, insect cells) (S. pombe) (UniProt Q9P793). The experiment is described as follows: pull-down; proteins coexpressed in Sf9 cells; OneStrep-tagged Mit1 constructs captured from the lysate on StrepTactin beads, 1 h at 4°C; 400 mM KCl, 100 mM Tris pH 7.5, 2 mM Mg-acetate, 5 mM β-mercaptoethanol, 0.1% NP40; eluted with desthiobiotin; Clr1MID included to stabilize the Mit1 C terminus.

For experiment [2], the target named is Chp2 full length protein (Gal4 binding domain fusion) (S. pombe) (UniProt O42934). The experiment is described as follows: two-hybrid; Chp2 constructs fused to the Gal4 binding domain (pGBKT7, Y2Hgold), Mit1 constructs in pGADT7 (Y187); growth at 30°C on SD/-Trp/-Leu/-His and SD/-Trp/-Leu/-His/-Ade (QDO).
Experiment [3] addresses Chp2CSD (Gal4 binding domain fusion) (S. pombe) (UniProt O42934). The description is as above.

Results are given in words; binding and its absence hold for the method and conditions named. Binding can be weak; no strength is given. For part of these data: Binding seen in cells or lysates may run through a third protein.

For “Chp2 (T7-tagged, coexpressed in insect cells) (from UniProt O42934 1-380)”, the binding entry in experiment [1] was “binds”.

For “Mit1 N terminus (Gal4 activation domain fusion) (from UniProt Q9P793) (domain or fragment)”, the binding result in experiment [2] and in experiment [3] was “binds” throughout.
